# Test results as given in PMC2680910.
# Sequences of proteins named here, by UniProt entry; tags and fusion partners are left off. A change or cut given only in a name is not applied to a line headed by its entry.
# UniProt Q8WUM4: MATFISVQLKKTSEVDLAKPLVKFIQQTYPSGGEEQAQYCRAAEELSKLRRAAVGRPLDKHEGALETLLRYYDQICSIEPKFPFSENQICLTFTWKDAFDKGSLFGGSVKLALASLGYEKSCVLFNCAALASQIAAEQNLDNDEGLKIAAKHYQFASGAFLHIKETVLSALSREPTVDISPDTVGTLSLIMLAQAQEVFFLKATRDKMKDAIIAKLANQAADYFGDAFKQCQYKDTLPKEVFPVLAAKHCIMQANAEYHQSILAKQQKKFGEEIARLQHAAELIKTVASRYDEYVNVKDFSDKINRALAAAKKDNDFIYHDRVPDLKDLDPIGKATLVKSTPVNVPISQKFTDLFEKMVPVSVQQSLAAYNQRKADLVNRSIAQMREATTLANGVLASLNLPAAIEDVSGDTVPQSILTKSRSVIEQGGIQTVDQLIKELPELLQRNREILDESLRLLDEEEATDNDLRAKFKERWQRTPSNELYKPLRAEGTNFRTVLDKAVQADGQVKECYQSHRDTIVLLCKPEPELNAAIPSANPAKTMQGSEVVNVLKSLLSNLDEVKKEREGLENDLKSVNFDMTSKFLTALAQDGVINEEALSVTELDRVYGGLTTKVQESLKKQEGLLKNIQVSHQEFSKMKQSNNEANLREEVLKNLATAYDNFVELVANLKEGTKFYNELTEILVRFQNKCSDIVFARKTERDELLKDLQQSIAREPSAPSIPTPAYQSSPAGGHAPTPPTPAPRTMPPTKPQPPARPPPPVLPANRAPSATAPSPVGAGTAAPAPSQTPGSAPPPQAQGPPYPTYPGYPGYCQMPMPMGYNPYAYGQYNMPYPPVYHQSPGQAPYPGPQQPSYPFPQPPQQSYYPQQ
# UniProt Q7Z6J0: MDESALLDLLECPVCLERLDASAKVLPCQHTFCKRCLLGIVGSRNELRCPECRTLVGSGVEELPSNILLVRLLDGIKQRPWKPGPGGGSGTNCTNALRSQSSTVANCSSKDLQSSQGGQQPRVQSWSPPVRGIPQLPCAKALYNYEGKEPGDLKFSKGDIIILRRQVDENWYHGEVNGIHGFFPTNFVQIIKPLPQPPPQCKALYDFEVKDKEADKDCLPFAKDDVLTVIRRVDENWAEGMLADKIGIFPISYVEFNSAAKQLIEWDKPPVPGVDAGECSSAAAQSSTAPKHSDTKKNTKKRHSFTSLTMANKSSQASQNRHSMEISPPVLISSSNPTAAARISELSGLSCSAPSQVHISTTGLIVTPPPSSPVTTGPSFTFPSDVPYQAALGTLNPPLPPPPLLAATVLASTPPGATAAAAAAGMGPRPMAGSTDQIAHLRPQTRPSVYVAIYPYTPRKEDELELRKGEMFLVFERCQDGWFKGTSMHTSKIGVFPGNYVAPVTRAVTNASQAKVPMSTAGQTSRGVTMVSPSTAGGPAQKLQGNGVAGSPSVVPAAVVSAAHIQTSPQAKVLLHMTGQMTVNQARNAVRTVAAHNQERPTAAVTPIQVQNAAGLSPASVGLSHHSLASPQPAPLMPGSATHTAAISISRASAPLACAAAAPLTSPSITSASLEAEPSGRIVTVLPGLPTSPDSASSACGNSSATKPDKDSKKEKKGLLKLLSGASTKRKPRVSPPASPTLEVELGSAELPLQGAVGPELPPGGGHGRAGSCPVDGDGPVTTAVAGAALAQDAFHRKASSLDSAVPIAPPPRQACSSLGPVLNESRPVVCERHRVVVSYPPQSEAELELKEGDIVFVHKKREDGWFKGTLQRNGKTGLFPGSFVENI
# These are yes or no findings as the source states them, for the method shown. For part of these data: In cells and extracts the contact can be indirect. Some binding calls cover weakened binding; strength is not graded here.
# Assays:
# [1] = molecular target: FLAG-tagged ALIX (ALG2-interacting protein X) (UniProt Q8WUM4); assay: co-IP; FLAG-ALIX and V5-POSH or V5-POSH V14A co-expressed in HEK 293 cells; lysis buffer 10 mM Tris HCl pH 7.5, 150 mM NaCl, 5 mM MgCl2, 1% octyl β-D-glucopyranoside; ALIX immunoprecipitated with anti-FLAG beads, washed three times, POSH detected by Western blot with anti-V5
# [2] = molecular target: GST-FLAG-ALIX-6xHIS (recombinant full-length ALIX) (UniProt Q8WUM4); assay: co-IP; bacterially expressed GST-Flag-ALIX and POSH (50 ng each) incubated in lysis buffer at 30°C for 45 min; ALIX immunoprecipitated with anti-FLAG beads, washed three times, Western blot with anti-POSH (PT1); both purified
binding [1],binding [2],Substance
binds,,V5-tagged POSH V14A (RING finger mutant) (from UniProt Q7Z6J0 1-888)
binds,,V5-tagged POSH (plenty of SH3) (from UniProt Q7Z6J0 1-888)
,binds,bacterially expressed maltose-binding protein (MBP)-POSH (from UniProt Q7Z6J0 1-888)
